Values from PubChem BioAssay AID1508597 (Cure First, 2020)

- Assay: 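Knock-downs altering ovarian cancer cell survival with or without PARP inhibitor rucaparib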 (primary screen)
- Cell system: human ovarian carcinoma lines grown from tumours: OCI-P5x (papillary serous) and OCI-C5x (clear cell)
- Reagents: siRNA pool against human genes, 1.25 pmol siRNA per well
- Duration: 72 h or 96 h, depending on the cell culture
- Treatment: rucaparib 20 µM (about IC30) or vehicle, present until read-out
- Measurement: 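ATP luminescence measured at 72 or 96 h according to the culture, then normalised and expressed as percent viability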
- Scale: viability, normalised: higher = more viable cells remaining
- Rule for the call: 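a well counts as a hit if its normalised viability is under 80 percent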
- Calls: active = viability under 80%; inactive = viability 80% or more
In all, the deposit lists about 2,100 reagents; shown is an unselected part. 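Calls flag viability under 80% in either arm, not effects specific to rucaparib; the reference for percent is not stated.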 A reagent listed more than once was tested more than once; the source does not tell the runs apart. Not stated in the record: the 100% reference.

no.	gene	PubChem SID	rucaparib or vehicle	cell line	technical replicate	viability, normalised (%)	call
1	ESPL1 (extra spindle pole bodies like 1, separase)	SID405528259	Rucaparib	OCI-C5x (clear cell)	1	55	active
2	ESPL1 (extra spindle pole bodies like 1, separase)	SID405528259	Rucaparib	OCI-C5x (clear cell)	2	57.9	active
3	ESPL1 (extra spindle pole bodies like 1, separase)	SID405528259	Rucaparib	OCI-C5x (clear cell)	3	61.3	active
4	ESPL1 (extra spindle pole bodies like 1, separase)	SID405528259	Rucaparib	OCI-P5x (serous)	1	82.4	inactive
5	ESPL1 (extra spindle pole bodies like 1, separase)	SID405528259	Rucaparib	OCI-P5x (serous)	2	89.8	inactive
6	ESPL1 (extra spindle pole bodies like 1, separase)	SID405528259	Rucaparib	OCI-P5x (serous)	3	74.3	active
7	ESPL1 (extra spindle pole bodies like 1, separase)	SID405528259	Vehicle	OCI-C5x (clear cell)	1	54.4	active
8	ESPL1 (extra spindle pole bodies like 1, separase)	SID405528259	Vehicle	OCI-C5x (clear cell)	2	72.2	active
9	ESPL1 (extra spindle pole bodies like 1, separase)	SID405528259	Vehicle	OCI-C5x (clear cell)	3	55.3	active
10	ESPL1 (extra spindle pole bodies like 1, separase)	SID405528259	Vehicle	OCI-P5x (serous)	1	76.9	active
11	ESPL1 (extra spindle pole bodies like 1, separase)	SID405528259	Vehicle	OCI-P5x (serous)	2	82.3	inactive
12	ESPL1 (extra spindle pole bodies like 1, separase)	SID405528259	Vehicle	OCI-P5x (serous)	3	80.6	inactive
13	UBE2A (ubiquitin conjugating enzyme E2 A)	SID405528499	Rucaparib	OCI-C5x (clear cell)	1	61.5	active
14	UBE2A (ubiquitin conjugating enzyme E2 A)	SID405528499	Rucaparib	OCI-C5x (clear cell)	2	56.2	active
15	UBE2A (ubiquitin conjugating enzyme E2 A)	SID405528499	Rucaparib	OCI-C5x (clear cell)	3	54.6	active
16	UBE2A (ubiquitin conjugating enzyme E2 A)	SID405528499	Rucaparib	OCI-P5x (serous)	1	58.7	active
17	UBE2A (ubiquitin conjugating enzyme E2 A)	SID405528499	Rucaparib	OCI-P5x (serous)	2	73.6	active
18	UBE2A (ubiquitin conjugating enzyme E2 A)	SID405528499	Rucaparib	OCI-P5x (serous)	3	60	active
19	UBE2A (ubiquitin conjugating enzyme E2 A)	SID405528499	Vehicle	OCI-C5x (clear cell)	1	57.6	active
20	UBE2A (ubiquitin conjugating enzyme E2 A)	SID405528499	Vehicle	OCI-C5x (clear cell)	2	60	active
21	UBE2A (ubiquitin conjugating enzyme E2 A)	SID405528499	Vehicle	OCI-C5x (clear cell)	3	57.3	active
22	UBE2A (ubiquitin conjugating enzyme E2 A)	SID405528499	Vehicle	OCI-P5x (serous)	1	68.4	active
23	UBE2A (ubiquitin conjugating enzyme E2 A)	SID405528499	Vehicle	OCI-P5x (serous)	2	56.3	active
24	UBE2A (ubiquitin conjugating enzyme E2 A)	SID405528499	Vehicle	OCI-P5x (serous)	3	63.3	active
25	GUCY2D (guanylate cyclase 2D, retinal)	SID405528578	Rucaparib	OCI-C5x (clear cell)	1	42.4	active
26	GUCY2D (guanylate cyclase 2D, retinal)	SID405528578	Rucaparib	OCI-C5x (clear cell)	2	55.9	active
27	GUCY2D (guanylate cyclase 2D, retinal)	SID405528578	Rucaparib	OCI-C5x (clear cell)	3	36.6	active
28	GUCY2D (guanylate cyclase 2D, retinal)	SID405528578	Rucaparib	OCI-P5x (serous)	1	68	active
29	GUCY2D (guanylate cyclase 2D, retinal)	SID405528578	Rucaparib	OCI-P5x (serous)	2	92.7	inactive
30	GUCY2D (guanylate cyclase 2D, retinal)	SID405528578	Rucaparib	OCI-P5x (serous)	3	62.3	active
31	GUCY2D (guanylate cyclase 2D, retinal)	SID405528578	Vehicle	OCI-C5x (clear cell)	1	41.7	active
32	GUCY2D (guanylate cyclase 2D, retinal)	SID405528578	Vehicle	OCI-C5x (clear cell)	2	39.2	active
33	GUCY2D (guanylate cyclase 2D, retinal)	SID405528578	Vehicle	OCI-C5x (clear cell)	3	40.9	active
34	GUCY2D (guanylate cyclase 2D, retinal)	SID405528578	Vehicle	OCI-P5x (serous)	1	62.4	active
35	GUCY2D (guanylate cyclase 2D, retinal)	SID405528578	Vehicle	OCI-P5x (serous)	2	60.5	active
36	GUCY2D (guanylate cyclase 2D, retinal)	SID405528578	Vehicle	OCI-P5x (serous)	3	70.9	active
37	NME3 (NME/NM23 nucleoside diphosphate kinase 3)	SID405527079	Rucaparib	OCI-C5x (clear cell)	1	42	active
38	NME3 (NME/NM23 nucleoside diphosphate kinase 3)	SID405527079	Rucaparib	OCI-C5x (clear cell)	1	32.2	active
39	NME3 (NME/NM23 nucleoside diphosphate kinase 3)	SID405527079	Rucaparib	OCI-C5x (clear cell)	2	51.7	active
40	NME3 (NME/NM23 nucleoside diphosphate kinase 3)	SID405527079	Rucaparib	OCI-C5x (clear cell)	2	43	active
41	NME3 (NME/NM23 nucleoside diphosphate kinase 3)	SID405527079	Rucaparib	OCI-C5x (clear cell)	3	45	active
42	NME3 (NME/NM23 nucleoside diphosphate kinase 3)	SID405527079	Rucaparib	OCI-C5x (clear cell)	3	21.4	active
43	NME3 (NME/NM23 nucleoside diphosphate kinase 3)	SID405527079	Rucaparib	OCI-P5x (serous)	1	74.6	active
44	NME3 (NME/NM23 nucleoside diphosphate kinase 3)	SID405527079	Rucaparib	OCI-P5x (serous)	1	65.4	active
45	NME3 (NME/NM23 nucleoside diphosphate kinase 3)	SID405527079	Rucaparib	OCI-P5x (serous)	2	50.4	active
46	NME3 (NME/NM23 nucleoside diphosphate kinase 3)	SID405527079	Rucaparib	OCI-P5x (serous)	2	67.8	active
47	NME3 (NME/NM23 nucleoside diphosphate kinase 3)	SID405527079	Rucaparib	OCI-P5x (serous)	3	72.4	active
48	NME3 (NME/NM23 nucleoside diphosphate kinase 3)	SID405527079	Rucaparib	OCI-P5x (serous)	3	59.8	active
49	NME3 (NME/NM23 nucleoside diphosphate kinase 3)	SID405527079	Vehicle	OCI-C5x (clear cell)	1	49.3	active
50	NME3 (NME/NM23 nucleoside diphosphate kinase 3)	SID405527079	Vehicle	OCI-C5x (clear cell)	1	43.7	active
51	NME3 (NME/NM23 nucleoside diphosphate kinase 3)	SID405527079	Vehicle	OCI-C5x (clear cell)	2	47.3	active
52	NME3 (NME/NM23 nucleoside diphosphate kinase 3)	SID405527079	Vehicle	OCI-C5x (clear cell)	2	35.5	active
53	NME3 (NME/NM23 nucleoside diphosphate kinase 3)	SID405527079	Vehicle	OCI-C5x (clear cell)	3	40.3	active
54	NME3 (NME/NM23 nucleoside diphosphate kinase 3)	SID405527079	Vehicle	OCI-C5x (clear cell)	3	26	active
55	NME3 (NME/NM23 nucleoside diphosphate kinase 3)	SID405527079	Vehicle	OCI-P5x (serous)	1	49.6	active
56	NME3 (NME/NM23 nucleoside diphosphate kinase 3)	SID405527079	Vehicle	OCI-P5x (serous)	1	76.6	active
57	NME3 (NME/NM23 nucleoside diphosphate kinase 3)	SID405527079	Vehicle	OCI-P5x (serous)	2	60.5	active
58	NME3 (NME/NM23 nucleoside diphosphate kinase 3)	SID405527079	Vehicle	OCI-P5x (serous)	2	68.4	active
59	NME3 (NME/NM23 nucleoside diphosphate kinase 3)	SID405527079	Vehicle	OCI-P5x (serous)	3	77.5	active
60	NME3 (NME/NM23 nucleoside diphosphate kinase 3)	SID405527079	Vehicle	OCI-P5x (serous)	3	45.6	active

3 entries from above, reformatted.
| gene | PubChem SID | rucaparib or vehicle | cell line | technical replicate | viability, normalised (%) | call |
| --- | --- | --- | --- | --- | --- | --- |
| NME3 (NME/NM23 nucleoside diphosphate kinase 3) | SID405527079 | Rucaparib | OCI-C5x (clear cell) | 1 | 32.2 | active |
| NME3 (NME/NM23 nucleoside diphosphate kinase 3) | SID405527079 | Rucaparib | OCI-C5x (clear cell) | 2 | 51.7 | active |
| NME3 (NME/NM23 nucleoside diphosphate kinase 3) | SID405527079 | Rucaparib | OCI-C5x (clear cell) | 2 | 43 | active |
